Values of other authors in patent publication US10472385B2, “Triterpene-glycosides as sweeteners or sweetener enhancers” (priority 2013, dated 2019).
Some results were stated once for a whole list of compounds, not compound by compound. For at least one compound, name, drawing or mass did not settle the structure.

Test system: sweet taste
Settings: state of the art; 'often'; cited from earlier work

Row | SMILES | sweetness relative to sucrose
1 | C[C@H](CC[C@@H](O[C@@H]1O[C@H](CO[C@@H]2O[C@H](CO)[C@@H](O)[C@H](O)[C@H]2O)[C@@H](O)[C@H](O)[C@H]1O[C@@H]1O[C@H](CO)[C@@H](O)[C@H](O)[C@H]1O)C(C)(C)O)[C@H]1CC[C@@]2(C)[C@@H]3CC=C4[C@@H](CC[C@H](O[C@@H]5O[C@H](CO)[C@@H](O[C@@H]6O[C@H](CO)[C@@H](O)[C@H](O)[C@H]6O)[C@H](O)[C@H]5O)C4(C)C)[C@]3(C)[C@H](O)C[C@]12C [iso-mogroside V] | > 100 × sweeter than sucrose
2 | C[C@H](CC[C@@H](O[C@@H]1O[C@H](CO[C@@H]2O[C@H](CO)[C@@H](O)[C@H](O)[C@H]2O)[C@@H](O)[C@H](O)[C@H]1O[C@@H]1O[C@H](CO)[C@@H](O)[C@H](O)[C@H]1O)C(C)(C)O)[C@H]1CC[C@@]2(C)[C@@H]3CC=C4[C@@H](CC[C@H](O[C@@H]5O[C@H](CO[C@@H]6O[C@H](CO)[C@@H](O)[C@H](O)[C@H]6O)[C@@H](O)[C@H](O)[C@H]5O)C4(C)C)[C@]3(C)[C@H](O)C[C@]12C [mogroside V] | > 100 × sweeter than sucrose
